In publication PMC8034431:
Results are given in words; binding and its absence hold for the method and conditions named.

Key:
[1] = biological target: FLT3 ligand Leu27Asp mutant (FL_(L27D)), as produced; test: SEC-MALS; each ligand alone; 1 mg/ml injected on Superdex 200 Increase, HBS (20 mM HEPES pH 7.4, 150 mM NaCl), 0.5 ml/min, 25 °C; FL_(L27D) tested up to 95.83 µM (1.7 mg/ml); both purified
[2] = biological target: thrombin-digested FL_(L27D) protein; test: crystal structure; FL_(L27D) without tag, 22 mg/ml, 2.0 M ammonium sulfate, 0.1 M HEPES pH 5.0, 293 K; space group P1, two copies in the unit cell, 1.65 Å; both purified

Binder	binding [1]	binding [2]
FLT3 ligand Leu27Asp mutant (FL_(L27D)), as produced (ligand) TQDCSFQHSPISSDFAVKIRELSDYLDQDYPVTVASNLQDEELCGGLWRLVLAQRWMERLKTVAGSKMQGLLERVNTEIHFVTKCAFQPPPSCLRFVQTNISRLLQETSEQLVALKPWITRQNFSRCLELQCQP	no binding (tested: 95.83 µM (1.7 mg ml^−1))	–
thrombin-digested FL_(L27D) protein (ligand) GSHMTQDCSFQHSPISSDFAVKIRELSDYLDQDYPVTVASNLQDEELCGGLWRLVLAQRWMERLKTVAGSKMQGLLERVNTEIHFVTKCAFQPPPSCLRFVQTNISRLLQETSEQLVALKPWITRQNFSRCLELQCQP	–	no binding
